“And” between values parts separate entries of the source, which are not always exact repeats. Equal values may be shown once. Where a name gives a salt, the structure may show the parent alone.

One data set relates to Daphnia. As to conditions: IC50-values, established assay; cited from earlier work.
Another data set deals with E. coli. The note with it: IC50-values, established assay; cited from earlier work.
The subject of data set [1] is Photobacterium phosphoreum. The note with it: IC50-values, established assay; cited from earlier work.
A further data set concerns microorganism no. 7. Kind of data set: MARA indicator device toxic fingerprint, microorganism no. 7. The note with it: Microbial Toxic Concentration; incubation time 16 h; HCl. The procedure: (§1) • dispense 150 μl of growth medium with indicator in each well • add a concentration gradient of the chemical to be tested to rows B-H in a MARA plate (i.e. an indicator device according to the present invention) • incubate for 16 h • read absorbance values; and • analyse with software.
(§2) Microbial responses to different chemicals was estimated by kinetic measurements of their growth using the Labsystem automated IEMS reader. A computer software that could monitor incubation temperatures, reading intervals, and automatically transfer OD data to a computer was developed. A growth medium containing 0.05% peptone, 0.011% bromothymol blue (BTB), 1% sodium chloride and 0.3% glucose was added to all wells. The glucose acts as a carbon source, and during growth the microorganism will break down the glucose and produce acids, that will turn the initially blue indicator to yellow. Each microplate contains 12 columns and 8 rows, and thus in each plate, 11 lyophilized microbial strains were used (one for each column, the 12th column was used as negative control). […] In order to avoid drying out of the plates during the incubation, one drop of sterile mineral oil was added to each well. The plate was then incubated in the IEMS spectrophotometer and the absorbance value from each well was measured every second hour during 48 h. […]

The test system of data set [2] is 11 different microbial strains. The procedure: as §1, §2

As for `CSc1ccc2c(c1)N(CCC1CCCCN1C)c1ccccc1S2` (stereo not drawn) [Tioridazin HCl], the “Inhibitory concentrations by method: Daphnia” value in the data set with Daphnia was 0.005 mg/mL. The “Inhibitory concentrations by method: E. coli” value with E. coli is 0.059 mg/mL. Also, in data set [1], the “Inhibitory concentrations by method: Microtox” value was 0.008 mg/mL.

For the compound `Cc1ccccc1C(OCCN(C)C)c1ccccc1` (stereo not drawn) [Orphenadrin HCl], the “Toxic fingerprint: MTC value for microorganism no. 7” value in the data set on microorganism no. 7 is 0.133 and 0.147. Further, the “Inhibitory concentrations by method: Daphnia” value with Daphnia is 0.011 mg/mL. Also, the “Inhibitory concentrations by method: MARA MTCmin” value in data set [2] amounted to 0.100 mg/mL. Also, in data set [2] (11 microbial strains (panel, species not named)), the “Inhibitory concentrations by method: MARA MTCmean” value was 0.139 mg/mL. Also, the “Inhibitory concentrations by method: E. coli” value with E. coli was 0.701 mg/mL. Further, the “Inhibitory concentrations by method: Microtox” value in data set [1] is 0.119 mg/mL.

The values are drawn from patent US8551921B2, “Method for determining the toxicity of an environmental or chemical sample” (priority 2000, dated 2013).
